# Assay results published in PMC2917022.
# Chains of the proteins cited; added tags and fusions are not shown. Lines headed by an entry give the natural chain unless they say otherwise; changes in a name come on top.
# UniProt P49674: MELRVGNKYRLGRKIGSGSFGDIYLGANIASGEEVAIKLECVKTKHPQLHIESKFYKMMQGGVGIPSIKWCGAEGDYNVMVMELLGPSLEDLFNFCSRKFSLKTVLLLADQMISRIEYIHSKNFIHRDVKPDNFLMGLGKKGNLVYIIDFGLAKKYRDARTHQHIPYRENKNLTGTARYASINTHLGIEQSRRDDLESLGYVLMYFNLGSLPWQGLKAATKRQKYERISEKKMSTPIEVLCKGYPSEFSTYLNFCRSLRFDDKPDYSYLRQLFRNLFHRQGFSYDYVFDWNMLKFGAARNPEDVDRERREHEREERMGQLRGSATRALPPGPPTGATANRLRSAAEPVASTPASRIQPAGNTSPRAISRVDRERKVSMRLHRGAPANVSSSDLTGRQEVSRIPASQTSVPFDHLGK
# Results are given in words; binding and its absence hold for the method and conditions named. In cells and extracts the contact can be indirect. Some results given as binding are weak or reduced against the parent protein; the word gives no strength. Tags and fused reporters may be left off the sequences shown.
# Key:
# [1] = target: T1, human Dvl3-Flag (Dishevelled 3) (human) (UniProt Q92997); assay: co-IP; HEK293 cells co-transfected with CK1ε variant and Dvl3-Flag, lysed, immunoprecipitated with anti-Flag antibody, western blot
# T1 sequence: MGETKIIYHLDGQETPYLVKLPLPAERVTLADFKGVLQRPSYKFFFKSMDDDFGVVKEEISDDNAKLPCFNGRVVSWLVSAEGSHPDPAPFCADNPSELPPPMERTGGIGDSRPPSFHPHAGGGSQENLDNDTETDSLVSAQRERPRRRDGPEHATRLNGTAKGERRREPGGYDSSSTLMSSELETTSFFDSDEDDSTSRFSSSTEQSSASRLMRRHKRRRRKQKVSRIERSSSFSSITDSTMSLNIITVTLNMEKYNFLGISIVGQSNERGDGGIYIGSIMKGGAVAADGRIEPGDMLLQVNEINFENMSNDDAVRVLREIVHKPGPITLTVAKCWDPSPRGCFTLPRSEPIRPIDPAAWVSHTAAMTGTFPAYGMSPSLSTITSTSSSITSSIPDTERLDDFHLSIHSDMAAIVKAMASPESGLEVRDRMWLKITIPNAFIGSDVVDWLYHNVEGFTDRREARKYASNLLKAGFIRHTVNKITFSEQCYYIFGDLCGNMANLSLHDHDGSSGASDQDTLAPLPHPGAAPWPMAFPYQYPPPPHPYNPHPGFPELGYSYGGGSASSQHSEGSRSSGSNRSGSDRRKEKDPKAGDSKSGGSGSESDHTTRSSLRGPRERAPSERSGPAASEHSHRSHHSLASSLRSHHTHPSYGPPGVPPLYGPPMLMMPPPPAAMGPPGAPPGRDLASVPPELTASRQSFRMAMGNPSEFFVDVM
# [2] = target: T2, mDvl2-Myc (Dishevelled 2) (mouse) (UniProt Q60838); assay: co-IP; HEK293 cells co-transfected with CK1ε variant and Dvl2-Myc, lysed, immunoprecipitated with anti-Myc antibody, western blot
# T2 sequence: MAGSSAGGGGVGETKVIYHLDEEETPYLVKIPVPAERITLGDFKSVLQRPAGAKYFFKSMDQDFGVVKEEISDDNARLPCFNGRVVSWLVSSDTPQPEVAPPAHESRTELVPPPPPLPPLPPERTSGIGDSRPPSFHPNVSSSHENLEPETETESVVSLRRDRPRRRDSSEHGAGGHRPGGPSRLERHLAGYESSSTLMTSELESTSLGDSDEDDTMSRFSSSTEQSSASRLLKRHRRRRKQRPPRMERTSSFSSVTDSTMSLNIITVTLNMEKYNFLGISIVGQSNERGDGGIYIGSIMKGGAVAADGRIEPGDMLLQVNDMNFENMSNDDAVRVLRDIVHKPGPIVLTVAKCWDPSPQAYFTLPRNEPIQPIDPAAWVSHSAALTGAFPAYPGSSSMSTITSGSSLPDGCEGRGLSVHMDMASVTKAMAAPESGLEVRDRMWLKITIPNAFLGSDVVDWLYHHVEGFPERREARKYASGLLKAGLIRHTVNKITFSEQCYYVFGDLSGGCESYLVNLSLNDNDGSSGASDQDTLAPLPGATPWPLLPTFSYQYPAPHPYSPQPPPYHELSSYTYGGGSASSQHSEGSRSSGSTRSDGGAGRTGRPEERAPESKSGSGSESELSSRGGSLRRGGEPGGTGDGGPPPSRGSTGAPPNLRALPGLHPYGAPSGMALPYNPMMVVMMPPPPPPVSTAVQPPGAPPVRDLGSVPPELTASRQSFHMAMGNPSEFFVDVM
binding [1],binding [2],Substance
binds,binds,"CK1ε P4 mutant (L39Q, L49Q, N78T) (from UniProt P49674 1-416) (enzyme)"
binds,binds,CK1ε P6 mutant (L39Q) (from UniProt P49674 1-416) (enzyme)
binds,binds,"CK1ε P3 mutant (L39Q, S101R) (from UniProt P49674 1-416) (enzyme)"
binds,binds,"wild-type (WT), full-length human casein kinase 1 epsilon (CK1ε) (from UniProt P49674 1-416) (enzyme)"
